Measurements reported in PubChem BioAssay AID1224830 (NIAID, 2016).

- Purpose: 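Host factors that control LPS-induced TNF expression in human macrophages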 (primary screen)
- System: human THP-1 monocytic leukaemia cells, TNF dual-luciferase reporter clone, PMA-differentiated to macrophage-like cells
- Reagents: siRNA pool against human genes, 50 nM
- Timing: LPS for 4 h, given about 3 days after siRNA transfection
- Challenge: bacterial LPS (TLR4 ligand), 10 ng/ml
- Read-out: 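TNF firefly reporter luminescence divided by renilla, normalised to the plate median, then turned into a robust z-score for each replicate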
- Reading the numbers: TNF reporter robust z-score: higher = stronger TNF reporter response to LPS
- Hit rule: 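Each well counts as active if its z-score is over 2.8 or under -1.5; controls are left without a call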
Shown is one part, drawn at random, of about 18,000 reagents. About 2,900 of them (16%) count as active. 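Calls are made per well; low scores hint the gene aids the LPS response, high scores that it dampens it.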 A number with no mark means an inactive call. Repeated entries: four replicate wells of each siRNA pool.

| gene symbol | PubChem SID | TNF reporter robust z-score |
| --- | --- | --- |
| SLITRK1 (GeneID 114798) | SID315461247 | 0.8 |
| SLITRK1 (GeneID 114798) | SID315461247 | 1.6 |
| SLITRK1 (GeneID 114798) | SID315461247 | 1.1 |
| SLITRK1 (GeneID 114798) | SID315461247 | 3.15 (active) |
| WSB2 (GeneID 55884) | SID315457927 | -1.14 |
| WSB2 (GeneID 55884) | SID315457927 | 0.12 |
| WSB2 (GeneID 55884) | SID315457927 | -1.89 (active) |
| WSB2 (GeneID 55884) | SID315457927 | -0.1 |
| RAD51AP1 (GeneID 10635) | SID315454255 | -1.38 |
| RAD51AP1 (GeneID 10635) | SID315454255 | -0.32 |
| RAD51AP1 (GeneID 10635) | SID315454255 | -0.59 |
| RAD51AP1 (GeneID 10635) | SID315454255 | 0.07 |
| ZNF256 (GeneID 10172) | SID315453879 | -0.64 |
| ZNF256 (GeneID 10172) | SID315453879 | 0.06 |
| ZNF256 (GeneID 10172) | SID315453879 | -0.67 |
| ZNF256 (GeneID 10172) | SID315453879 | -0.61 |
| EGR1 (GeneID 1958) | SID315448462 | -1.74 (active) |
| EGR1 (GeneID 1958) | SID315448462 | -1.54 (active) |
| EGR1 (GeneID 1958) | SID315448462 | -1.8 (active) |
| EGR1 (GeneID 1958) | SID315448462 | -1.72 (active) |
| AK4 (GeneID 205) | SID315447257 | -1.57 (active) |
| AK4 (GeneID 205) | SID315447257 | -1.12 |
| AK4 (GeneID 205) | SID315447257 | -0.48 |
| AK4 (GeneID 205) | SID315447257 | -1.4 |
| AK4 (GeneID 205) | SID315464457 | -0.3 |
| AK4 (GeneID 205) | SID315464457 | -1.3 |
| AK4 (GeneID 205) | SID315464457 | -0.6 |
| AK4 (GeneID 205) | SID315464457 | -0.14 |
| CAMSAP1 (GeneID 157922) | SID315462640 | -0.07 |
| CAMSAP1 (GeneID 157922) | SID315462640 | 0.29 |
| CAMSAP1 (GeneID 157922) | SID315462640 | -0.01 |
| CAMSAP1 (GeneID 157922) | SID315462640 | 1.06 |
| CDC42EP1 (GeneID 11135) | SID315454626 | -0.72 |
| CDC42EP1 (GeneID 11135) | SID315454626 | -0.63 |
| CDC42EP1 (GeneID 11135) | SID315454626 | -0.3 |
| CDC42EP1 (GeneID 11135) | SID315454626 | -0.39 |
| RINL (GeneID 126432) | SID315461714 | -0.48 |
| RINL (GeneID 126432) | SID315461714 | -1.03 |
| RINL (GeneID 126432) | SID315461714 | -0.8 |
| RINL (GeneID 126432) | SID315461714 | -0.12 |
| KCNT2 (GeneID 343450) | SID315464158 | 0.41 |
| KCNT2 (GeneID 343450) | SID315464158 | 0.64 |
| KCNT2 (GeneID 343450) | SID315464158 | -1.09 |
| KCNT2 (GeneID 343450) | SID315464158 | -1.42 |
| STBD1 (GeneID 8987) | SID315452959 | 1.13 |
| STBD1 (GeneID 8987) | SID315452959 | 1.08 |
| STBD1 (GeneID 8987) | SID315452959 | 1.69 |
| STBD1 (GeneID 8987) | SID315452959 | 3.75 (active) |
| RPS6KC1 (GeneID 26750) | SID315455851 | 0.68 |
| RPS6KC1 (GeneID 26750) | SID315455851 | 0.97 |
| RPS6KC1 (GeneID 26750) | SID315455851 | 0.18 |
| RPS6KC1 (GeneID 26750) | SID315455851 | -0.84 |
| ST6GAL1 (GeneID 6480) | SID315451425 | -0.16 |
| ST6GAL1 (GeneID 6480) | SID315451425 | 0.94 |
| ST6GAL1 (GeneID 6480) | SID315451425 | 0.29 |
| ST6GAL1 (GeneID 6480) | SID315451425 | 0.35 |
| CFAP20DC (GeneID 200844) | SID315463047 | -0.33 |
| CFAP20DC (GeneID 200844) | SID315463047 | 0.73 |
| CFAP20DC (GeneID 200844) | SID315463047 | 0.65 |
| CFAP20DC (GeneID 200844) | SID315463047 | -1.16 |
| SGMS1 (GeneID 259230) | SID315463569 | 0.03 |
| SGMS1 (GeneID 259230) | SID315463569 | 0.33 |
| SGMS1 (GeneID 259230) | SID315463569 | 0.94 |
| SGMS1 (GeneID 259230) | SID315463569 | 0.35 |
| ADAMTS18 (GeneID 170692) | SID315462915 | -0.18 |
| ADAMTS18 (GeneID 170692) | SID315462915 | -0.54 |
| ADAMTS18 (GeneID 170692) | SID315462915 | -0.67 |
| ADAMTS18 (GeneID 170692) | SID315462915 | 1.48 |
| PUS10 (GeneID 150962) | SID315462473 | 0.17 |
| PUS10 (GeneID 150962) | SID315462473 | 0.21 |
| PUS10 (GeneID 150962) | SID315462473 | 1.24 |
| PUS10 (GeneID 150962) | SID315462473 | 1.81 |
| CHCHD2 (GeneID 51142) | SID315456506 | -1.02 |
| CHCHD2 (GeneID 51142) | SID315456506 | -0.14 |
| CHCHD2 (GeneID 51142) | SID315456506 | -0.52 |
| CHCHD2 (GeneID 51142) | SID315456506 | -0.07 |
| VANGL2 (GeneID 57216) | SID315458339 | -0.29 |
| VANGL2 (GeneID 57216) | SID315458339 | 0.13 |
| VANGL2 (GeneID 57216) | SID315458339 | 0 |
| VANGL2 (GeneID 57216) | SID315458339 | 0.34 |
| ZBTB48 (GeneID 3104) | SID315449199 | -1.19 |
| ZBTB48 (GeneID 3104) | SID315449199 | 0.15 |
| ZBTB48 (GeneID 3104) | SID315449199 | -0.94 |
| ZBTB48 (GeneID 3104) | SID315449199 | -0.25 |
| MAPK9 (GeneID 5601) | SID315450825 | 2.15 |
| MAPK9 (GeneID 5601) | SID315450825 | 1.32 |
| MAPK9 (GeneID 5601) | SID315450825 | 1.81 |
| MAPK9 (GeneID 5601) | SID315450825 | 1.05 |
| F8A2 (GeneID 474383) | SID315464994 | -1.34 |
| F8A2 (GeneID 474383) | SID315464994 | 0.68 |
| F8A2 (GeneID 474383) | SID315464994 | 0.55 |
| F8A2 (GeneID 474383) | SID315464994 | -0.61 |
| FBXW8 (GeneID 26259) | SID315455741 | 0.29 |
| FBXW8 (GeneID 26259) | SID315455741 | 3.58 (active) |
| FBXW8 (GeneID 26259) | SID315455741 | 1.18 |
| FBXW8 (GeneID 26259) | SID315455741 | -0.02 |
| SPTB (GeneID 6710) | SID315451621 | 0.64 |
| SPTB (GeneID 6710) | SID315451621 | 0.02 |
| SPTB (GeneID 6710) | SID315451621 | -0.35 |
| SPTB (GeneID 6710) | SID315451621 | 4.16 (active) |
| EFNA5 (GeneID 1946) | SID315448451 | 0.53 |
| EFNA5 (GeneID 1946) | SID315448451 | -0.19 |
| EFNA5 (GeneID 1946) | SID315448451 | 0.42 |
| EFNA5 (GeneID 1946) | SID315448451 | 1.54 |
| MFNG (GeneID 4242) | SID315449956 | -1.18 |
| MFNG (GeneID 4242) | SID315449956 | -0.97 |
| MFNG (GeneID 4242) | SID315449956 | -0.93 |
| MFNG (GeneID 4242) | SID315449956 | -0.74 |
| SIN3B (GeneID 23309) | SID315455151 | -1.33 |
| SIN3B (GeneID 23309) | SID315455151 | -0.91 |
| SIN3B (GeneID 23309) | SID315455151 | -0.96 |
| SIN3B (GeneID 23309) | SID315455151 | -0.46 |
| INO80D (GeneID 54891) | SID315457243 | 0.72 |
| INO80D (GeneID 54891) | SID315457243 | 0.4 |
| INO80D (GeneID 54891) | SID315457243 | -0.49 |
| INO80D (GeneID 54891) | SID315457243 | 0.01 |
| PABPN1 (GeneID 8106) | SID315452402 | 1.27 |
| PABPN1 (GeneID 8106) | SID315452402 | 1.45 |
| PABPN1 (GeneID 8106) | SID315452402 | 0.68 |
| PABPN1 (GeneID 8106) | SID315452402 | 1.31 |
| TTC13 (GeneID 79573) | SID315459299 | 0.16 |
| TTC13 (GeneID 79573) | SID315459299 | 1.93 |
| TTC13 (GeneID 79573) | SID315459299 | -0.61 |
| TTC13 (GeneID 79573) | SID315459299 | -0.5 |
| LRRK1 (GeneID 79705) | SID315459397 | 0.92 |
| LRRK1 (GeneID 79705) | SID315459397 | 1.35 |
| LRRK1 (GeneID 79705) | SID315459397 | 0.04 |
| LRRK1 (GeneID 79705) | SID315459397 | -0.6 |
| RAB11B (GeneID 9230) | SID315453139 | 0.52 |
| RAB11B (GeneID 9230) | SID315453139 | 0.68 |
| RAB11B (GeneID 9230) | SID315453139 | 0.32 |
| RAB11B (GeneID 9230) | SID315453139 | 1.09 |
| ST8SIA2 (GeneID 8128) | SID315452408 | -0.79 |
| ST8SIA2 (GeneID 8128) | SID315452408 | -1.3 |
| ST8SIA2 (GeneID 8128) | SID315452408 | -0.39 |
| ST8SIA2 (GeneID 8128) | SID315452408 | -0.13 |
| ACAP3 (GeneID 116983) | SID315461398 | -0.44 |
| ACAP3 (GeneID 116983) | SID315461398 | 0.14 |
| ACAP3 (GeneID 116983) | SID315461398 | 1.54 |
| ACAP3 (GeneID 116983) | SID315461398 | 0.91 |

Records above whose target name starts with W or w:
| gene symbol | PubChem SID | TNF reporter robust z-score |
| --- | --- | --- |
| WSB2 (GeneID 55884) | SID315457927 | -1.14 |
| WSB2 (GeneID 55884) | SID315457927 | 0.12 |
| WSB2 (GeneID 55884) | SID315457927 | -1.89 (active) |
| WSB2 (GeneID 55884) | SID315457927 | -0.1 |
